# Primary screen of a compound library

The chains behind the UniProt entries cited, without tags or fusion partners.
UniProt E9BF75, entry or part of it: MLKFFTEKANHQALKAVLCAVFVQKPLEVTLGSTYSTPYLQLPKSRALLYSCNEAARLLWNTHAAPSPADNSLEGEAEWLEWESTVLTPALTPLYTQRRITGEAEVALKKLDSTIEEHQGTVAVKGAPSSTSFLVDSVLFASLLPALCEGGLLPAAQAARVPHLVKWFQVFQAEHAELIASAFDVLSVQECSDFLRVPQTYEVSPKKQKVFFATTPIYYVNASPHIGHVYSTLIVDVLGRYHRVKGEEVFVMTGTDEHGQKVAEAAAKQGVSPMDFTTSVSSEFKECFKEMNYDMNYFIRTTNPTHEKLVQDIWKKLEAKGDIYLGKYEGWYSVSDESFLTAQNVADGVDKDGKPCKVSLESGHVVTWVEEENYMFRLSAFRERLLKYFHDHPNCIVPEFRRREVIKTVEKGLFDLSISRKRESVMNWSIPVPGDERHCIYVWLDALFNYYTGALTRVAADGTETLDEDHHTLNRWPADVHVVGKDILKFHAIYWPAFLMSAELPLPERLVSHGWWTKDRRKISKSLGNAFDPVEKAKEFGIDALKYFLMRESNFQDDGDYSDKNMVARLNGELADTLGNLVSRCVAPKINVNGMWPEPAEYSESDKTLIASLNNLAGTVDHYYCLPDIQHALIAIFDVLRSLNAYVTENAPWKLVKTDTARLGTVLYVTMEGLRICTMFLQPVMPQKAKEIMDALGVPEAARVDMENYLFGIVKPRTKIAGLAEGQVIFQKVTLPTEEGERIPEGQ

LdMetRS: 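Methionyl-tRNA synthetase (putative), Leishmania donovani (UniProt E9BF75). Primary screen of methionyl-tRNA synthetase; the read-out is not stated. The test concentration is not given. The values are filed as inhibition. About 68,000 compounds were tested under these conditions; 0.035% (about 24) showed 50% or more at least once.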
Mtb heat-shock: 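Assay on Mycobacterium tuberculosis, filed only as a heat shock assay from Cornell; the read-out is not stated. The concentration is filed as 10 mM, unlikely as a test dose, so the dose is not known. The record gives no direction; compounds that gave an IC50 in retests scored well above the rest, so higher reads as stronger inhibition. Of about 69,000 compounds tested this way, about 930 (1.4%) reached 50% or more in at least one test.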

All values are in %.
How 0% and 100% were set is not recorded. Most values in the screen are low, and negative values occur.
Compounds were drawn at random from those tested, without regard to their results.
A dash means the value is not listed here; it may have been measured.

structure,LdMetRS,Mtb heat-shock
CC(C)c1cc(NC(=O)CN2CCC(C(N)=O)CC2)on1,12.57,-25.48
CCOCCC(=O)N1CCN(CC(C)O)CC1 (stereo unspecified),5.108,-10.46
CC(C)N1CCCN(c2nc(-c3cccnc3)nc3c2cnn3C)CC1,6.875,-13.28
COc1cc(C(=O)N2CCO[C@H]3[C@H](OCC4CC4)CC[C@@H]32)ccc1F,9.058,-
O=C(O)C(F)(F)F.[H][C@@]12C[C@@H](c3nc(C)no3)O[C@]1([H])CN(Cc1scnc1C)C2,-,-23.54
Cc1noc(C)c1CN1C[C@@H](OCC(=O)N(C)C)[C@H]2OCCC[C@H]21,10.95,-
CC/C=C(\C)CN1CCC(CNC(=O)c2c[nH]c(=O)c(Cl)c2)C1 (stereo unspecified),2.527,-14.04
COc1cccc(CC2CN(C3CCC3)CCO2)c1 (stereo unspecified),16.08,-18.23
CCNC(=O)C1CCCN(c2ccc3ccc(F)cc3n2)C1 (stereo unspecified),13.51,11.84
Cn1nnc2c1CCN(CC1CC1)C2COCc1ccccc1 (stereo unspecified),15.68,-
CCOCC(=O)NCC1Cn2nnc(-c3cccc(F)c3)c2CO1 (stereo unspecified),-141.5,-1.319
CN(Cc1c(Cl)ccc2cccnc12)CC(C)(CO)CO,8.242,-0.1599
CC(C)CN1C[C@H]2C[C@H](C(=O)NC3CCC3)[C@@H](C1)O2,14.75,-
CN(C)[C@@H]1CCN(C(=O)NC2CCCC2)[C@H]1Cc1ccncc1,16.06,-
Cc1cc(C(=O)N2CCCC2c2c(C)nn(C)c2C)no1 (stereo unspecified),20.34,-13.1
CN(C(=O)CCOc1ccccc1)C1CCN(CC2CCOC2)CC1 (stereo unspecified),10.53,-28.32
CCOC(=O)CNC(=O)c1cc(-c2ccccc2)nc2ncnn12,7.196,-6.731
O=C(CN1CCOc2ccccc2C1)NCc1cc2n(n1)CCNC2,4.91,-27.66
Cc1ccc(CN(C)C(=O)C(C)n2ccnc2C(C)C)o1 (stereo unspecified),15.4,12.52
Cc1cc(C(=O)N2CCCS2(=O)=O)c(C)o1,17.74,4.978
Cc1nn(C)c(C)c1C1CCCN1CC(=O)Nc1ccc(Cl)cn1 (stereo unspecified),23.62,-3.525
COc1ncnc2c1CCN(C(=O)NCc1cccc(F)c1)CC2,17.03,-27.85
Cc1cc(-c2ccc(C(C)N3CCCCC3)cc2)cnc1N (stereo unspecified),9.749,-8.127
COCCN1CCO[C@@H]2CN(S(=O)(=O)c3cccnc3)C[C@@H]2C1,10.44,-
O=C(c1cscn1)N1CCC[C@]2(C[C@@H](OCC3CC3)CO2)C1,14.43,-5.615
CC(C)c1nc(C2CCCN2CCS(C)(=O)=O)no1 (stereo unspecified),13,-1.223
C1CC(c2nnc(CN3CCCC3c3noc(C4CC4)n3)o2)C1 (stereo unspecified),16.19,46.49
O=C(C[C@@H]1COC[C@H]2CN(Cc3ccccn3)C[C@@H]12)N1CCOCC1,15.85,-
CCCS(=O)(=O)N1C[C@@H](c2nc(C)no2)C[C@H]2OCC[C@H]21,14.11,-
Cc1nnc(NC(=O)CCc2c(C)nn3cnnc3c2C)s1,6.971,4.369
O=C(NCc1cnn2ccccc12)NC1CCCC1,10.65,1.234
CCCOCC(=O)Nc1ncc(I)cc1C,9.192,13.94
CCOC1CC2(CCN(C(=O)COC)CC2)c2cc(C)ccc21 (stereo unspecified),0.7246,-4.26
Cc1cc(NC(=O)N2CCC[C@@H]2CO)nn1-c1ccccc1Cl,13.68,-3.532
Cc1cc(C)nc(N2CC[C@@]3(O)CCN(S(=O)(=O)N(C)C)C[C@H]3C2)n1,8.591,-
CCN(CCNS(=O)(=O)C1CCOCC1)C(=O)OC(C)(C)C,11.48,-7.011
O=S(=O)(NCCn1cc(C2CCOC2)nn1)c1ccc(Cl)cc1 (stereo unspecified),-0.6873,-19.71
Cc1cc(CNc2cc(Cl)ccc2Cl)no1,6.748,12.76
CC(C)Oc1ncccc1CNC(=O)C1CCCN(C(=O)C2CC2)C1 (stereo unspecified),8.163,-8.028
O=C(Cc1ccccc1F)NCC1CCN(CCc2ccccc2)C1 (stereo unspecified),10.51,2.785
Cn1nccc1-c1ncc2c(c1C(=O)O)CCN(Cc1cccnc1)C2.O=C(O)C(F)(F)F.O=C(O)C(F)(F)F,-,-17.54
[H][C@]12CCC[C@@]1(COC)CN(C(=O)CCOC)C2,-,14.83
O=S(=O)(Cc1ccccc1F)N1CCCC1c1nnc2n1CCCCC2 (stereo unspecified),15.23,-6.943
Cc1cc(C[C@@H]2COC[C@H]2NCc2ccc(Cl)c(Cl)c2)on1.O=C(O)CC(O)(CC(=O)O)C(=O)O,-,-20.39
CCCS(=O)(=O)N1CCC2(CC1)CN(c1ccccn1)CCO2.O=C(O)C(F)(F)F,-,-14.44
O=C(c1ccco1)N(c1ccc(F)cn1)C1CCOCC1,3.008,-15.23
CCc1noc(CN(CCc2ccccc2)C2CCN(C)CC2)n1,4.02,-3.549
COC(=O)c1cccc(C(=O)N2CCCC(n3cncn3)C2)c1 (stereo unspecified),17.09,3.023
[H][C@]12CN(Cc3ccco3)C[C@@]1([H])OCCN(S(=O)(=O)C1CC1)C2,-,-19.64
COCC(=O)N1CCC2(CCN(Cc3cccnc3)C2)CC1.O=C(O)C(F)(F)F.O=C(O)C(F)(F)F,-,-10.92
Cc1nn(C)cc1-c1ccnc(N(C)Cc2ccoc2)n1,22.87,-12.87
CC(C)C1CN(c2cccc(C#N)n2)CCCN1CC1CC1 (stereo unspecified),9.137,-9.405
COCc1noc(-c2cc(Cl)c3c(c2)OCO3)n1,12.72,7.627
COc1c(CNCc2ccc(N3CCCC3)nc2)c(C(C)C)nn1C,16.94,-11.74
COC[C@H]1CCC[C@]12CN(CCc1ccccc1)CCO2,12.03,-
CCn1ncc2c1C(COC)CN(c1ncc(F)cn1)C2 (stereo unspecified),17.14,-
COCCN(C)C[C@H]1C[C@H](CO)CN(C(=O)c2ccn(C)c(=O)c2)C1,19.77,5.113
CCCSCC(=O)N1CCCC2(CCC(=O)N(CCc3c[nH]cn3)C2)C1 (stereo unspecified),11.83,-17.75

For reference, 4 entries once more:

structure	LdMetRS	Mtb heat-shock
CCn1ncc2c1C(COC)CN(c1ncc(F)cn1)C2 (stereo unspecified)	17.14	-
CC/C=C(\C)CN1CCC(CNC(=O)c2c[nH]c(=O)c(Cl)c2)C1 (stereo unspecified)	2.527	-14.04
CCCSCC(=O)N1CCCC2(CCC(=O)N(CCc3c[nH]cn3)C2)C1 (stereo unspecified)	11.83	-17.75
COc1cc(C(=O)N2CCO[C@H]3[C@H](OCC4CC4)CC[C@@H]32)ccc1F	9.058	-

Data taken from ChEMBL document CHEMBL3988442, “University of Dundee, Small-Polar-MMV Screening Library” (2021).